Results reported in PubChem BioAssay AID504444 (National Center for Advancing Translational Sciences (NCATS), 2011).
Out of some 360,000 compounds screened, about 7,500 (2.1%) were called active. This list was built around the results that the source calls inconclusive (neither active nor inactive); the mix of calls is not that of the screen. The call rests on the fitted dose curve; in most records, active means well fitted inhibition curve with a large enough effect; inconclusive means small, poorly fitted or top-dose-only effect, or effect the other way; inactive means flat fitted curve, though single readings scatter. Potencies beside an inconclusive call are fits to weak or partial responses and may not hold up.
On the % scale 0 is the no-effect control and ±100 the full control effect; potency means the concentration at half of the fitted maximal effect.

Test: Nrf2 qHTS screen for inhibitors; further: nearly all actives have a fitted effect of over 60% in size
Details: A549 ARE-Fluc reporter, luciferase luminescence, 18-24 h; activity change, negative = inhibition: at 46 µM (top of the series)
Method in brief: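 Quantitative HTS in A549 cells stably bearing an antioxidant response element-firefly luciferase construct. Inhibition of Nrf2-driven transcription was scored by luminescence after 18-24 h of compound exposure at 37 °C.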
For `CC1(C)CCC(=O)N2CC[C@H]3C[C@H](OC(=O)Nc4ccccc4)C[C@@H]1[C@H]32`, the Potency was inconclusive: 4.11 µM [activator, full curve, poor fit].
With `O=C(NCCc1c[nH]c2ccccc12)c1cc2sccc2n1Cc1ccccc1` the Potency was inconclusive: 29.1 µM [falling, single point].
For `CCCN(CCC)C(=O)CC(c1ccccc1)c1ccc(C)cc1O` (stereo unspecified), the “activity change, negative = inhibition” value was inactive: -19.2%.
With `COc1cccc(C(=O)C2CCCN(Cc3cccc(-n4cccn4)c3)C2)c1` (stereo unspecified) the Potency was inconclusive: 32.6 µM [falling, single point].
In the case of `Cc1cccc(OCCn2c(=O)n(C)c3ccccc32)c1`, the Potency is reported as inconclusive: 16.4 µM [activator, partial curve].
With `CCC(C)NC(=O)c1cn(CC)c2cc(N3CCN(C(=O)c4ccco4)CC3)c(F)cc2c1=O` (stereo unspecified) the “activity change, negative = inhibition” value was inactive: -1.56%.
With `CCOC(=O)c1cnn(-c2ccc(C)cc2)c1N` the “activity change, negative = inhibition” value was inactive: 2.25%.
With `O=C(N/N=C/c1ccccc1F)c1cc2c(ccc3ccccc32)o1` the Potency was inconclusive: 10.3 µM [falling, partial curve].
With `O=C(Nc1ccncc1)c1ccc(Cl)c(S(=O)(=O)N2CCCC2)c1` the Potency was inconclusive: 16.4 µM [falling, single point].
With `O=C(c1ccc2c(=O)n(Cc3ccc4c(c3)OCO4)c(=S)[nH]c2c1)N1CCN(Cc2ccccc2)CC1` the Potency was inconclusive: 32.6 µM [falling, single point].
With `COc1ccc([C@H]2CC(=O)C=C(c3cccc(Br)c3)C2)cc1` the “activity change, negative = inhibition” value was inactive: -5.2%.
For `CC(C)(C)C(=O)Nc1ccc(N2CCN(c3ccc(C(F)(F)F)cn3)CC2)nc1`, the Potency was inconclusive: 3.66 µM [falling, full curve].
For `CCc1ccc(CNC(=O)CN2C(=O)c3cccnc3Oc3ccc(Cl)cc32)cc1`, the “activity change, negative = inhibition” value was inactive: -15.4%.
In the case of `COc1ncccc1C(=O)N1CCCC(N2CCN(c3cccc(Cl)c3)CC2)C1` (stereo unspecified), the Potency is reported as active: 8.2 µM.
For `Cc1nn(Cc2cccc(C(=O)N3N=C(C(F)F)CC3(O)C(F)F)c2)c(C)c1[N+](=O)[O-]` (stereo unspecified), the Potency was inconclusive: 29.1 µM [falling, single point].
In the case of `CCN(c1cccc(C)c1)S(=O)(=O)c1nnc(NC(=O)C2CCCCC2)s1`, the Potency is reported as inconclusive: 25.9 µM [activator, partial curve, poor fit].
In the case of `Cn1c(=O)c2c(nc(OC3CCCCCC3)n2C)n(C)c1=O`, the Potency is reported as inconclusive: 23.1 µM [falling, single point].
With `CCOc1ccc(NC(=O)CSc2ncc3c(n2)-c2ccc(Cl)cc2N(Cc2ccccc2)S3(=O)=O)cc1` the Potency was inconclusive: 9.2 µM [activator, partial curve, poor fit].
For `CCn1c2ccccc2c2cc(NC(=O)COC(=O)c3cc(S(=O)(=O)N4CCCCC4)ccc3Cl)ccc21`, the “activity change, negative = inhibition” value was inactive: -25.8%.
For `CNc1nc(SCc2ccc(C)cc2)nc2c1CCCC2`, the Potency was inconclusive: 11.6 µM [falling, partial curve].
For `COc1ccc(OC)c(CNC(=O)c2nn(-c3ccc(OC)c(Cl)c3)c(=O)c3c2c2ccccc2n3C)c1`, the Potency was inconclusive: 16.4 µM [activator, partial curve, poor fit].
For `CCOc1ccc(Cl)cc1S(=O)(=O)N1CCC(C(=O)NCc2cccnc2)CC1`, the Potency was inconclusive: 1.84 µM [activator, partial curve].
In the case of `CCC(C)NS(=O)(=O)c1ccc(NC(=O)C2CCCO2)cc1` (stereo unspecified), the Potency is reported as inconclusive: 18.4 µM [falling, single point].
For `CN(C(=O)c1ccc([N+](=O)[O-])cc1)c1ccccc1C(=O)NCc1ccccc1`, the Potency was inconclusive: 4.61 µM [activator, single point].
In the case of `Cc1cc2oc(=O)cc(CN(C)Cc3ccccc3F)c2cc1Cl`, the Potency is reported as inconclusive: 8.2 µM [activator, partial curve].
For `CCC(=O)Oc1oc(-c2ccccc2)nc1C=Nc1ccccc1OC`, the Potency was inconclusive: 20.6 µM [falling, single point].
With `CC1(C)Cc2ccccc2-c2nnc(SCC(=O)Nc3ccc4c(c3)OCO4)n21` the Potency was inconclusive: 16.4 µM [falling, partial curve, poor fit].
For `CCOc1ccc2nc(N3CCCC(C(=O)Nc4c(C)cccc4C)C3)sc2c1` (stereo unspecified), the Potency was inconclusive: 5.17 µM [activator, full curve].
With `Cc1ccc(N2CC(C(=O)Nc3nc4ccc(S(C)(=O)=O)cc4s3)CC2=O)cc1C` (stereo unspecified) the Potency was inconclusive: 18.4 µM [activator, single point].
With `Fc1cc(F)c2nc(N3CCOCC3)sc2c1` the Potency was inconclusive: 8.2 µM [activator, partial curve].
With `O=C(C1CCN(S(=O)(=O)c2ccc(Br)s2)CC1)N1CCN(c2cccc(Cl)c2)CC1` the Potency was inconclusive: 16.4 µM [falling, single point].
In the case of `CCC(=O)NCCc1nc2cc(NC(=O)c3ccccc3Cl)ccc2n1C`, the Potency is reported as inconclusive: 6.51 µM [activator, full curve].
With `CCOC(=O)c1ccc(NC(=O)CCn2c(=O)c3cccn3c3ccccc32)cc1` the Potency was inconclusive: 29.1 µM [falling, single point].
In the case of `CCOC(=O)C1CCN(Cc2cc(Cl)c3ccccc3c2O)CC1`, the “activity change, negative = inhibition” value is reported as inactive: -9.79%.
For `Cc1ccc(C)c(Sc2ccc(NC(=O)CCN3C(=O)NC4(CCCC4)C3=O)cc2)c1`, the Potency was inconclusive: 29.1 µM [falling, single point].
For `NC(=O)c1c(NC(=O)c2nc(SCc3ccccc3F)ncc2Cl)sc2c1CCCC2`, the “activity change, negative = inhibition” value was inactive: 0.307%.
In the case of `COc1ccc(S(=O)(=O)Nc2ccc3c(c2)OCCO3)cc1OC`, the “activity change, negative = inhibition” value is reported as inactive: -22.7%.
For `CCc1noc(C)c1C(=O)Nc1nc(-c2ccc(OC)cc2OC)cs1`, the Potency was active: 8.2 µM.
With `COc1ccc(NC(=O)c2cccc(S(=O)(=O)N3CCCCCC3)c2)cc1` the Potency was inconclusive: 29.1 µM [falling, single point].
For `Cc1nnc(-c2ccccc2)c(=O)n1/N=C/c1c(O)ccc2ccccc12`, the Potency was inconclusive: 20.6 µM [falling, single point].
With `CC1(C)CC2CN(C(=O)Cc3ccccc3)C(C)(C2)C1` (stereo unspecified) the “activity change, negative = inhibition” value was inactive: -14.3%.
With `CCOC(=O)Cn1c(CN(Cc2ccccc2)Cc2ccccc2)nc2c1c(=O)[nH]c(=O)n2C` the Potency was inconclusive: 13 µM [falling, partial curve, poor fit].
In the case of `N#Cc1nc(-c2ccccc2Cl)oc1N1CCCCC1`, the Potency is reported as inconclusive: 20.6 µM [activator, single point].
In the case of `CN(CC(=O)Nc1c(Cl)cccc1Cl)C(=O)CNC(=O)c1sc2ccccc2c1Cl`, the Potency is reported as inconclusive: 29.1 µM [falling, single point].
In the case of `CCCn1c(SCc2nc(-c3ccc(OC)cc3OC)no2)nnc1-c1ccc(Cl)cc1`, the Potency is reported as inconclusive: 18.4 µM [falling, single point].
For `CCC1CN(C(=O)N2CCC(C(=O)NCCc3ccc(Cl)cc3)CC2)c2ccccc2O1` (stereo unspecified), the “activity change, negative = inhibition” value was inactive: 10.4%.
For `CC(C)c1[nH]c(=O)c(C#N)c2c1COC(C)(C)C2`, the “activity change, negative = inhibition” value was inactive: 3.32%.
For `COc1cc(/C=C/C(=O)c2ccc(NS(=O)(=O)c3ccc(C)cc3)cc2)ccc1OC(F)F`, the “activity change, negative = inhibition” value was inactive: 3.5%.
For `C[C@@H]1CN([C@H](C)CO)C(=O)c2cccc(NC(=O)NC3CCCCC3)c2O[C@@H]1CN(C)C(=O)Nc1ccc(C(F)(F)F)cc1`, the Potency was inconclusive: 29.1 µM [falling, single point].
For `O=C(CCCN1C(=O)/C(=C\c2cccs2)SC1=S)Nc1ccc(C(=O)O)cc1`, the “activity change, negative = inhibition” value was inactive: -5.64%.
With `Cn1c(SCc2ccc(F)cc2)nc2ccc(C(=O)NCc3ccc(Cl)cc3)cc21` the Potency was active: 14.6 µM.
In the case of `COc1ccc(-c2noc(CN(C(=O)COc3cc(C)c(Br)c(C)c3)C(C)C)n2)cc1`, the Potency is reported as inconclusive: 32.6 µM [falling, single point].
For `NC(=O)C1CCN(C(=S)c2ccc(-c3ccc(Br)cc3)o2)CC1`, the Potency was inconclusive: 2.06 µM [activator, full curve].
In the case of `Cc1ccc(C)c(S(=O)(=O)N2CCN(Cc3ccc(O)c4ncccc34)CC2)c1`, the “activity change, negative = inhibition” value is reported as inactive: -20%.
In the case of `COC(=O)C1=C(C)N(CCCC(=O)O)C(=O)NC1c1ccccc1Cl` (stereo unspecified), the Potency is reported as inconclusive: 29.1 µM [activator, single point].
In the case of `Cc1cccc(N2CCN(S(=O)(=O)c3cc4c(cc3Cl)NC(=O)CO4)CC2)c1C`, the Potency is reported as inconclusive: 0.0058 µM [activator, full curve, poor fit].
For `COc1ccc(CCNC(=O)CCCn2c(=O)c3ccccc3n(Cc3cccc(Cl)c3)c2=O)cc1OC`, the Potency was inconclusive: 16.4 µM [falling, single point].
For `CC(=O)Nc1ccc(OCCC[n+]2ccccc2)cc1`, the “activity change, negative = inhibition” value was inactive: -17.5%.
For `CCN(C(=O)c1cc(Cl)ccc1OC)C1CCCCC1`, the Potency was inconclusive: 2.91 µM [falling, partial curve, poor fit].
In the case of `OC(CNCc1ccco1)Cn1c2ccc(Br)cc2c2cc(Br)ccc21` (stereo unspecified), the Potency is reported as inconclusive: 29.1 µM [falling, single point].
For `Cc1nc2c(C)[n+](CC(=O)c3ccccc3)ccc2n1C`, the Potency was inconclusive: 29.1 µM [falling, single point].
For `CCC(=O)Nc1c(C(=O)N2CCN(c3ccc(F)cc3)CC2)oc2ccccc12`, the Potency was inconclusive: 20.6 µM [activator, single point].
In the case of `O=C(c1ccccc1CCc1ccccc1)N1CCOCC1`, the activity change, negative = inhibition is reported as inconclusive: 45% [activator].
In the case of `CC[C@]12c3[nH]c4ccc(Cl)cc4c3CCN1C(=O)[C@@H](CC(=O)NCC13CC4CC(CC(C4)C1)C3)C[C@@H]2C(=O)N1CCN(C(=O)c2ccco2)CC1`, the Potency is reported as inconclusive: 18.4 µM [falling, single point].
In the case of `COc1ccc2nc(C)c(C(N)=O)cc2c1`, the “activity change, negative = inhibition” value is reported as inactive: 3.97%.
In the case of `CCCC(c1nnnn1C(C)(C)C)N1CCN(Cc2ccccc2OC)CC1` (stereo unspecified), the “activity change, negative = inhibition” value is reported as inactive: 2.86%.
